Laboratory results from patent publication EP4435012A1 (Juventus Cell Therapy Ltd., dated 2024).
Results are given in words; binding and its absence hold for the method and conditions named. Some results given as binding are weak or reduced against the parent protein; the word gives no strength.

Protein sequences, listed by entry. Tags and fused reporters are not part of them. Residues count along the entry.
UniProt Q02223, residues 1-54: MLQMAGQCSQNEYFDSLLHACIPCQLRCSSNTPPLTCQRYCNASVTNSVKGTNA

Target: BCMA antigen (ELISA of Example 9) (UniProt Q02223)
Test: ELISA, purified scFv

binding: binds
B1: BY-02G scFv (humanized, purified) (scFv)
scFv: EIVMTQSPSTLSASVGDRVIINCQSSPSVYNNYLSWYQQKPGKAPKLLIYETSTLASGVPSRFSGSGSGAEFTLTISSLQPDDFATYYCAGTYVSGDRRAFGQGTKLTVLGGGGSGGGGSGGGGSEVQLVESGGGLVQPGGSLRLSCTASGFSLSTYHMTWVRQAPGKGLEWIGVISSSGSTYYASWAKGRFTISRDNSKNTVYLQMNSLRAEDTAVYFCARDLDYVIDLWGPGTLVTVSS
